The other results are listed elsewhere or left out.
The sequences below were run against T1, OsSMF1 (Oryza sativa, UniProt Q6ZLB0 1-436) (assay: protein-binding microarray (RPBM); PBS, 2% BSA, 51.3 ng/ul salmon testes DNA, 50 uM zinc acetate, 200 nM TF, 25 C, 1 h; high values mean tight binding). Settings: protein: recombinant; tags: N-terminal polyhistidine and DsRed monomer fusion (pET32a); chain copies: 2; label: CyDye5-dUTP incorporated in the synthesized complementary strand; 3' TTTTT single-stranded linker to array surface; dsDNA, one strand shown.
T1 sequence: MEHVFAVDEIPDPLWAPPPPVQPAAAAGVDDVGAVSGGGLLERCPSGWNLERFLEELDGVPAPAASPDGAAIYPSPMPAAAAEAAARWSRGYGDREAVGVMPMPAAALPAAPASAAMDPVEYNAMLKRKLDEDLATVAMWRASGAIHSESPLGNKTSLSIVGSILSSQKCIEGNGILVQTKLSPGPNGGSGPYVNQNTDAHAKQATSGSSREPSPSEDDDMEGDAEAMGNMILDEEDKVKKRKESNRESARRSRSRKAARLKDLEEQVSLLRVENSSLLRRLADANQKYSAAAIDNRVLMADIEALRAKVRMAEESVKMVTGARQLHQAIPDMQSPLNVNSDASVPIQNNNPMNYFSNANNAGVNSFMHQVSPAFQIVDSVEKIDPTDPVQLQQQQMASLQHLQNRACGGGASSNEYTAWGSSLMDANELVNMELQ
Summary of the method: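 Binding signal is defined as the fluorescence intensity of each feature in arbitrary units, read on an Axon 4000B scanner. Transcription factors with N-terminal polyhistidine and DsRed fusions came from E. coli BL21-CodonPlus and were purified on Ni–NTA. They were incubated at 200 nM for 1 h at 25 °C on a custom Agilent array that had been made double-stranded with Cy5-dUTP, with 50 µM zinc acetate present, and the array was washed.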
For “TCACCGTCGCTGTTCGCCTTTGCACGGACGTCACCACCACCGGAGTCACCTAGTGCAG”, the binding signal was 4220 fluorescence intensity (a.u.).
In the case of “CTCGCTCCCCGTCGTAGACGTCGCCTTCGCCGTCGCTCTCCGGAGTCACCTAGTGCAG”, the binding signal is reported as 4480 fluorescence intensity (a.u.).
In the case of “CATCATCATTATCATCAACAACAACATCATCAGCCTTTAGCGGAGTCACCTAGTGCAG”, the binding signal is reported as 4930 fluorescence intensity (a.u.).
In the case of “CGGGGCTCGATCGTGTGCGATGTGTGTGTGGCGTGGCCGGCGGAGTCACCTAGTGCAG”, the binding signal is reported as 3820 fluorescence intensity (a.u.).
For “GCAATTGCCCGTCACGCCTCGTCTTCCTCGTCGTCTTGCACGGAGTCACCTAGTGCAG”, the binding signal was 3770 fluorescence intensity (a.u.).
With “CCCATCAACTTGCCTCACTTGAAGCTACAATCAAGAAATCCGGAGTCACCTAGTGCAG” the binding signal was 31300 fluorescence intensity (a.u.).
For “ATTTGATCCTTATTATTAACCGCTGTTGAATTCAGCAAACCGGAGTCACCTAGTGCAG”, the binding signal was 29900 fluorescence intensity (a.u.).
With “CGCGGGTATACCGTATCGGTACCCATCGTATATCCGAGGACGGAGTCACCTAGTGCAG” the binding signal was 5100 fluorescence intensity (a.u.).
In the case of “CAGATACAGTCTTCTTCCTGGCGTCCAAGCTGCTCAAGACCGGAGTCACCTAGTGCAG”, the binding signal is reported as 23500 fluorescence intensity (a.u.).
In the case of “ACCCATGTGCCCATGCCCGACCCATGCCCGAAAGGGCTATCGGAGTCACCTAGTGCAG”, the binding signal is reported as 3610 fluorescence intensity (a.u.).
With “TAATCCTGTGTTCCATGCAAGGACTAAGCACATAGAAGTTCGGAGTCACCTAGTGCAG” the binding signal was 20900 fluorescence intensity (a.u.).
In the case of “CGCGCGATTCGCCGCTGCTGTTCATCTTCCAGACAGGAGGCGGAGTCACCTAGTGCAG”, the binding signal is reported as 3840 fluorescence intensity (a.u.).
In the case of “GGGTGATTGAATCCTTGTCATCTAGTGTAAGGCATCTTTCCGGAGTCACCTAGTGCAG”, the binding signal is reported as 4510 fluorescence intensity (a.u.).
“CACAATCTGCACGCCATATCTGACTACACATATACAACGCCGGAGTCACCTAGTGCAG” was tested, and the binding signal was 3360 fluorescence intensity (a.u.).
With “GGGAGAGGTGGAGACCAGGAGGTGGGGTGGCGGAGGTCATCGGAGTCACCTAGTGCAG” the binding signal was 4070 fluorescence intensity (a.u.).
With “AATATTATAGTCACATCTTCACAAAATCAGCTACTGTTATCGGAGTCACCTAGTGCAG” the binding signal was 3430 fluorescence intensity (a.u.).
In the case of “CTAATATAAGTATTCATGTGTTTCTTTAACCCACATTATCCGGAGTCACCTAGTGCAG”, the binding signal is reported as 3330 fluorescence intensity (a.u.).
With “CCCAATCCGAACGGGACAGCTGCCCACGTGCGACCCATGTCGGAGTCACCTAGTGCAG” the binding signal was 4920 fluorescence intensity (a.u.).
With “CAGTAGGGCAAGGCGGTGTCGGCGAGCGCGCGGTGGTGGACGGAGTCACCTAGTGCAG” the binding signal was 23400 fluorescence intensity (a.u.).
With “GAGGCGGTGGAGTGGTGAACACGTCAGTCCGGTGACGTGGCGGAGTCACCTAGTGCAG” the binding signal was 21400 fluorescence intensity (a.u.).
In the case of “AATCTTCTTCAAAACGTCATTACAGCCAAAGAAAAGCATGCGGAGTCACCTAGTGCAG”, the binding signal is reported as 3710 fluorescence intensity (a.u.).
In the case of “TATCATCATATAAAGAAGACTGAGGTTGTGGACTTGTCTACGGAGTCACCTAGTGCAG”, the binding signal is reported as 4580 fluorescence intensity (a.u.).
With “GCGCAGATCGAGCTTGCATGGGCTGGCTAGCTCCCTGGTACGGAGTCACCTAGTGCAG” the binding signal was 7710 fluorescence intensity (a.u.).
With “ACGGCGGCAGCCAGCTCGACCTCCCCACCGCCCATCTGGTCGGAGTCACCTAGTGCAG” the binding signal was 3420 fluorescence intensity (a.u.).
With “ATCGGGTTGTTGTTGTGTCATTCTCTGCCAAATGGGCCAGCGGAGTCACCTAGTGCAG” the binding signal was 4600 fluorescence intensity (a.u.).
In the case of “TGGGTGTTGACGTGTCCCGAGTGGCGGCCCTTCCGCACCCCGGAGTCACCTAGTGCAG”, the binding signal is reported as 14500 fluorescence intensity (a.u.).
“CATCACGCGCCGTATAAAGCGACCTTTGCCTGGCTACACGCGGAGTCACCTAGTGCAG” was tested, and the binding signal was 28700 fluorescence intensity (a.u.).
“AGATGCAATCGATGATGTCAGCAGTAGTAGTAGTACAAACCGGAGTCACCTAGTGCAG” was tested, and the binding signal was 10500 fluorescence intensity (a.u.).
In the case of “AAAACAAAGGACAAACGCAGGCGCTTGCACACTCTATCTTCGGAGTCACCTAGTGCAG”, the binding signal is reported as 4220 fluorescence intensity (a.u.).
In the case of “CTCCAAGCCAAGCCGGACGCGGACGCCACCGCCCTCGCCTCGGAGTCACCTAGTGCAG”, the binding signal is reported as 3150 fluorescence intensity (a.u.).
For “ATCCTCGCATAGATCTGGCGTAGCAGCGGTGCGACGCGGCCGGAGTCACCTAGTGCAG”, the binding signal was 3290 fluorescence intensity (a.u.).
“ACAAGAGTTTAAATAGTACCAGTACATACAGGTGGCATCTCGGAGTCACCTAGTGCAG” was tested, and the binding signal was 3400 fluorescence intensity (a.u.).
For “CACCACGGTCACCTGCCACGCCTTCCAGAACCCGCCTCTCCGGAGTCACCTAGTGCAG”, the binding signal was 5570 fluorescence intensity (a.u.).
“TTGACGGCACAACTTCACCAATCTGAATCACGGACCGCATCGGAGTCACCTAGTGCAG” was tested, and the binding signal was 3400 fluorescence intensity (a.u.).
“CACTCACCTGAATTCACGCATCTGATGGGCCTCAGCTGCTCGGAGTCACCTAGTGCAG” was tested, and the binding signal was 4040 fluorescence intensity (a.u.).
In the case of “TCATCCATGAAACTCAGCAGCTTACATCTGGGTCCACCTGCGGAGTCACCTAGTGCAG”, the binding signal is reported as 3390 fluorescence intensity (a.u.).
“ACTGAATTCACCGTACTGGTGAGTTAAACTTTTCTAATGGCGGAGTCACCTAGTGCAG” was tested, and the binding signal was 11900 fluorescence intensity (a.u.).
“GCCCTACGTGCTACTACTAGTAGTTGTAGAATCGTGCGTGCGGAGTCACCTAGTGCAG” was tested, and the binding signal was 3370 fluorescence intensity (a.u.).
In the case of “ATTAACCATGGTCCACTGGAAATTTCTGGCTCTGAAATTGCGGAGTCACCTAGTGCAG”, the binding signal is reported as 4370 fluorescence intensity (a.u.).
For “GGCCTGACCCAAAATCGATGACGAGATATAAGGGTACATCCGGAGTCACCTAGTGCAG”, the binding signal was 3500 fluorescence intensity (a.u.).
“CAACGCAGCCATGACGCCCAGCCGCGTCAGCGTAGGGCTCCGGAGTCACCTAGTGCAG” was tested, and the binding signal was 4820 fluorescence intensity (a.u.).
“CACCATAATATAAAATTTGGCTCCCAATTAATATCAATCCCGGAGTCACCTAGTGCAG” was tested, and the binding signal was 25000 fluorescence intensity (a.u.).
